Experimental findings from PMC10198857 are described below.

Amino acid sequences for entries named in this document (tags omitted). Residues count along the entry.
UniProt P15941, residues 24-1255: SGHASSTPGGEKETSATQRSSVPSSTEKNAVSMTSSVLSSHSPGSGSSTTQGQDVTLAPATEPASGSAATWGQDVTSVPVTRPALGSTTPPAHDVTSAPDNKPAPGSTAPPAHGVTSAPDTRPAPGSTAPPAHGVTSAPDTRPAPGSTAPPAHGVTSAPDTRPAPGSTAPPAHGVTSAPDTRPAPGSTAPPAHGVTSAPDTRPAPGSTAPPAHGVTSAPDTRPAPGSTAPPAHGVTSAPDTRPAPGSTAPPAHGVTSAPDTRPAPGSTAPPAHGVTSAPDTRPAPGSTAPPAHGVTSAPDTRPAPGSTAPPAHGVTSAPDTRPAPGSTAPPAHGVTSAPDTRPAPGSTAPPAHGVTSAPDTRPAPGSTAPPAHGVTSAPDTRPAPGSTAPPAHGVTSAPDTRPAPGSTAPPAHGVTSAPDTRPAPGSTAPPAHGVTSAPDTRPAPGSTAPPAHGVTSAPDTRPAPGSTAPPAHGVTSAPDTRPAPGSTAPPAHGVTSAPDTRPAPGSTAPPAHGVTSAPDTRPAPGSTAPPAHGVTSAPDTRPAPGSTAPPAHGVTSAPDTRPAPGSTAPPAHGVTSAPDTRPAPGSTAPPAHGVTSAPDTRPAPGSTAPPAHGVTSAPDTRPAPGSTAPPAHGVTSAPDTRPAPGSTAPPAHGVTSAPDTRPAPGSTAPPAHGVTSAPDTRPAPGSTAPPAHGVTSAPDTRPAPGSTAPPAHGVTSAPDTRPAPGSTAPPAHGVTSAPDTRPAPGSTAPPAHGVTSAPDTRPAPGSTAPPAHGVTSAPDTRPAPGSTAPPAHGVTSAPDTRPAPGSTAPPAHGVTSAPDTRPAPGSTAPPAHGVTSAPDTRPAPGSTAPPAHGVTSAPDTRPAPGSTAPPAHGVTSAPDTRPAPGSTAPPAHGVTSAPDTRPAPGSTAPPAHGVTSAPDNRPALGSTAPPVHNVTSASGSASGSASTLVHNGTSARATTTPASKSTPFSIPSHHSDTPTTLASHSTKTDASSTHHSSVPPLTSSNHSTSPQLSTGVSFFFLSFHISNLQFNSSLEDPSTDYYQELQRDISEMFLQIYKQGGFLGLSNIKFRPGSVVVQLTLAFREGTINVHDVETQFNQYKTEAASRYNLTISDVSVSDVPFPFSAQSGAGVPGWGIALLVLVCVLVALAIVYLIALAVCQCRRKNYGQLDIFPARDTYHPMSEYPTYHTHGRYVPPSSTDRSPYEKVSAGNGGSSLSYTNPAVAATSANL
UniProt P35222: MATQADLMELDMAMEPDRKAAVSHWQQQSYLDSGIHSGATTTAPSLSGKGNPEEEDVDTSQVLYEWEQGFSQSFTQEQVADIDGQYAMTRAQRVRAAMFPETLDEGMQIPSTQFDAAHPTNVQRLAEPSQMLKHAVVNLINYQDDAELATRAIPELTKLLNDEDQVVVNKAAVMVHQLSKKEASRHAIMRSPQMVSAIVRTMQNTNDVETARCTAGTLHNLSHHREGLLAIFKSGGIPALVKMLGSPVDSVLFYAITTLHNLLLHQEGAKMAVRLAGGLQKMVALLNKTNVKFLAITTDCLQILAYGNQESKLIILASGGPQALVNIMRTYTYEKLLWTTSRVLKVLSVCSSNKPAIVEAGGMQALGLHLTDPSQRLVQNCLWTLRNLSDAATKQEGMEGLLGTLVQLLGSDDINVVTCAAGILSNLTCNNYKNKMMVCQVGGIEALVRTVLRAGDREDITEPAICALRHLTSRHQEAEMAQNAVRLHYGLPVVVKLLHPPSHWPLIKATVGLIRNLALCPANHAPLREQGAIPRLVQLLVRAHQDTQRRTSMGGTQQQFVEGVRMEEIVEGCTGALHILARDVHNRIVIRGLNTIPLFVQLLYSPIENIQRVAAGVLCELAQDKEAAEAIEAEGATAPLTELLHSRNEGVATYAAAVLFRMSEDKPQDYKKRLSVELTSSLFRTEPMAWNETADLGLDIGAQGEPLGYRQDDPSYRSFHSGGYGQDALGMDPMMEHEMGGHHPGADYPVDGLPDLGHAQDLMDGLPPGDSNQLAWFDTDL

No constants are given. Whether binding was seen depends on the method and setting. In cells and extracts the contact can be indirect. Some entries that bind do so weakly or less than the wild type.

The experiment concerns the target mucin 1 (MUC1) (human (endogenous in ESCC cells)) (UniProt P15941). The experiment can be described thus: co-IP; ESCC cells; which protein was precipitated is not told; methods in Supplementary file 1 (not shown).

On to β-catenin (from UniProt P35222 1-781), for which the binding result is “binds”.
